# Measurements: PubChem BioAssay (EPA / NIEHS)
# The chains behind the UniProt entries cited, without tags or fusion partners. Where a name states a change or a piece, a line headed by the entry shows the natural chain unless it says otherwise.
# UniProt P19793: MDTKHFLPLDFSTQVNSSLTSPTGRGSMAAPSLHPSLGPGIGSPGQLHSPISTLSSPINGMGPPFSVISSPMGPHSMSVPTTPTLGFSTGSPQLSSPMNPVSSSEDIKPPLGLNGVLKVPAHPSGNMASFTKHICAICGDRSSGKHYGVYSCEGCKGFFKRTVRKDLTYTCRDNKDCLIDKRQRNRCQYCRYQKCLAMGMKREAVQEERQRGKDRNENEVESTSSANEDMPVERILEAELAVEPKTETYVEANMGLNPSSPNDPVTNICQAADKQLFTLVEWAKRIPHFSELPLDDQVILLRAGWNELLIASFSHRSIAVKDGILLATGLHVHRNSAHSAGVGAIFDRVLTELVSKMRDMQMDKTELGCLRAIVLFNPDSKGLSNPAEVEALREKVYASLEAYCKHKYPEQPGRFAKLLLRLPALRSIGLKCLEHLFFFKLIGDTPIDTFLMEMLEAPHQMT
# UniProt P04637, whole entry, looked up: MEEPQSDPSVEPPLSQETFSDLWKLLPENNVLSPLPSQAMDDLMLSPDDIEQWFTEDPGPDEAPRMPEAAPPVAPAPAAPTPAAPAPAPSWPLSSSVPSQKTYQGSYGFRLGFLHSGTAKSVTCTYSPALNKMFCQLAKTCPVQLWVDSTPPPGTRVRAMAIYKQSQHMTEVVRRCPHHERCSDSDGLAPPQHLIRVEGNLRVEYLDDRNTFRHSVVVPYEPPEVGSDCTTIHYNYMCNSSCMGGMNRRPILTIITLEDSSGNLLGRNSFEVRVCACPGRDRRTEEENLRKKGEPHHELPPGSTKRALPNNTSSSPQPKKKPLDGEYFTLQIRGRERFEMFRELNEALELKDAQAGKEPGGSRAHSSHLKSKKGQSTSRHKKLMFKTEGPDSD
# Where “and” joins values, the source holds several entries; their conditions need not be identical. Equal entries are not always repeated. The shares of active, inactive and inconclusive entries below differ from those in the screen. For some assays here: Where the call is inconclusive, the potency comes from a doubtful curve fit. A structure can be active in one record and inactive in another. Calls of active or inactive are those of the source. Rule for the calls: active = hit-call score of the fitted dose curve at least 0.9, where 1 is the maximum; inconclusive = response in the unintended direction; inactive = score below 0.9.
# Experiments:
# [1] = biological target: Retinoic acid receptor RXR-alpha (Homo sapiens) (UniProt P19793); test: OT_NURR1_NURR1RXRa_0480: Odyssey Thera (OT) 8-hour HEK293T Protein Complementation Assay for Nurr1/retinoid X receptor (RXR) (AID 2283385)
# In short: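 Interaction of Nurr1 with RXRα read as reconstituted reporter fluorescence in a HEK293T fragment-complementation system, 8 h post-treatment; increase over DMSO baseline analysed.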
# [2] = biological target: Retinoic acid receptor RXR-alpha (Homo sapiens) (UniProt P19793); test: OT_NURR1_NURR1RXRa_1440: Odyssey Thera (OT) 24-hour HEK293T Protein Complementation Assay for Nurr1/retinoid X receptor (RXR) (AID 2283386)
# In short: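 Gain in fluorescence, fitted relative to DMSO, reflects Nurr1–RXRα association in HEK293T cells after 24 h dosing. Bait and prey are each linked to a reporter-protein fragment that reassembles on interaction.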
# [3] = ATG_XTT_Cytotoxicity: Cytotoxicity Assessment in the Attagene TRANS-FACTORIAL HepG2 Assay (AID 2283584);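 for AC50: XTT signal for cell number as viability in transfected HepG2 cells; cells exposed to compound for 24 h before reading; active means loss of viability signal versus DMSO baseline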
# In short: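 HepG2 cells transiently transfected with GAL4-UAS multiple reporter units, dosed 24 h; cytotoxicity read by XTT as loss of signal versus DMSO baseline.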
# [4] = TOX21_p53_BLA_p3_viability: Viability Assessment in the Tox21 HCT-116 p53 Agonism Beta-lactamase Assay, Phase 3 (AID 2283593);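 note: cells exposed to compound for 16 h before reading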
# In short: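 HCT116 cells, 4000/well, dosed 5 h after plating by pin transfer (217-fold dilution from DMSO stock) and incubated 16 h at 37C, 5% CO2. Viability read as ATP luminescence with CellTiter-Glo after 30 min at room temperature.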
# [5] = TOX21_p53_BLA_p4_viability: Viability Assessment in the Tox21 HCT-116 p53 Agonism Beta-lactamase Assay, Phase 4 (AID 2283597);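 note: hits lower the luminescence signal meaning cytotoxicity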
# In short: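 4000 HCT116 cells per well; 5 h attachment; compounds from DMSO, 217-fold dilution; 16 h at 37C. Then CCF4-AM, 2 h RT, followed by CellTiter-Glo, 30 min RT, luminescence. Decrease = cytotoxicity.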
# [6] = biological target: Cellular tumor antigen p53 (Homo sapiens) (UniProt P04637); test: TOX21_p53_BLA_p5_ratio: Tox21 HCT-116 p53 Agonism Beta-lactamase Assay, Ratio, Phase 5 (AID 2283599)
# In short: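 HCT-116 p53-bla cells (4000/well) plated 5 h, dosed with compound (217-fold DMSO dilution) for 16 h at 37 C; CCF4-AM substrate 2 h at room temperature. Activity is the 460/530 nm emission ratio (405 nm excitation), fitted in gain-of-signal direction versus DMSO.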
# [7] = biological target: Cellular tumor antigen p53 (Homo sapiens) (UniProt P04637); test: TOX21_p53_BLA_p4_ratio: Tox21 HCT-116 p53 Agonism Beta-lactamase Assay, Ratio, Phase 4 (AID 2283601)
# In short: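 HCT-116 p53 beta-lactamase reporter cells (4000/well) preincubated 5 h, then compound (217-fold dilution of DMSO stock) for 16 h at 37C. CCF4-AM substrate added 2 h at room temperature; 460/530 nm emission ratio fitted upward versus DMSO.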
# [8] = TOX21_p53_BLA_p5_viability: Viability Assessment in the Tox21 HCT-116 p53 Agonism Beta-lactamase Assay, Phase 5 (AID 2283600)
# In short: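 Decreased CellTiter-Glo luminescence denotes lost viability. Exposure: 16 h at 37C, 5% CO2, with compounds from DMSO stocks diluted 217-fold in wells of 4000 cells.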
# [9] = Tanguay_ZF_120hpf_SNOU_legacy: (Legacy) Oregon State University Tanguay Lab 120 Hour Post-fertilization zebrafish Assay for Snout Malformation (AID 2283637)
# In short: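 Binary brightfield scoring of snout malformation at 120 hpf. Dechorionated 5D wild-type embryos, one per well, static exposure from 6 hpf at 28C, sealed and dark; final DMSO 0.64% (vol/vol), DMSO as baseline; 5uM trimethyltin chloride positive control.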
# [10] = TOX21_p53_BLA_p2_viability: Viability Assessment in the Tox21 HCT-116 p53 Agonism Beta-lactamase Assay, Phase 2 (AID 2283591);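 note: actives lower the ATP signal meaning cytotoxicity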
# In short: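 HCT116 p53-bla cells, 4000/well, dosed after 5 h plating (217-fold dilution of DMSO stocks) and incubated 16 h at 37C. Viability taken as cellular ATP by CellTiter-Glo luminescence after 30 min RT; signal loss marks cytotoxicity.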
# [11] = biological target: Cellular tumor antigen p53 (Homo sapiens) (UniProt P04637); test: TOX21_p53_BLA_p3_ratio: Tox21 HCT-116 p53 Agonism Beta-lactamase Assay, Ratio, Phase 3 (AID 2283596)
# In short: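 Cells were seeded at 4000/well, rested 5 h at 37C, then dosed with DMSO compound solutions (217-fold dilution) for 16 h. CCF4-AM substrate was loaded for 2 h at room temperature, and the 460/530 nm emission ratio was fitted for gain of signal versus DMSO.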
# [12] = biological target: Cellular tumor antigen p53 (Homo sapiens) (UniProt P04637); test: TOX21_p53_BLA_p2_ratio: Tox21 HCT-116 p53 Agonism Beta-lactamase Assay, Ratio, Phase 2 (AID 2283592)
# In short: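 First, HCT116 reporter cells settle for 5 h at 37C. Next, DMSO compound solutions are pinned in (217-fold dilution) and left 16 h. Finally, CCF4-AM substrate is loaded 2 h at room temperature and the 460/530 nm ratio read.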
smiles,measurement,setting,value
O=S(=O)(O)c1cc(S(=O)(=O)O)c2c(N=Nc3ccccc3)c(O)ccc2c1,AC50,[1],inconclusive: 50 µM
same,AC50,[2],inconclusive: 50 µM
same,AC50,[3],inconclusive: 100 µM
same,AC50,[4],inconclusive: 46.1 µM
same,outcome,[5],inactive
same,AC50,[6],inconclusive: 46.1 µM and inconclusive: 46.2 µM
same,AC50,[7],inconclusive: 46.1 µM
CCOc1ccc2c(c1)C(C)=CC(C)(C)N2,AC50,[1],inconclusive: 50 µM
same,AC50,[2],inconclusive: 67.7 µM
same,AC50,[3],inconclusive: 100 µM
same,AC50,[4],inconclusive: 45.9 µM
same,AC50,[5],inconclusive: 45.9 µM
same,AC50,[8],inconclusive: 205 nM and inconclusive: 23 µM
same,AC50,[7],active: 76.6 µM
same,AC50,[9],active: 19.4 µM
CCCCC(CC)C(=O)OCCOCCOCCOC(=O)C(CC)CCCC (stereo not drawn),AC50,[1],inconclusive: 0.0371 µM
same,outcome,[2],inactive
same,AC50,[3],inconclusive: 100 µM
same,AC50,[10],inconclusive: 46.6 µM
same,outcome,[10],inactive
same,AC50,[4],inconclusive: 46.1 µM
same,outcome,[4],inactive
same,AC50,[11],inconclusive: 46.6 µM
same,AC50,[5],inconclusive: 46.1 µM
same,AC50,[6],inconclusive: 46.1 µM and inconclusive: 46.6 µM
same,AC50,[8],inconclusive: 2.9 nM
same,outcome,[7],inactive
O=C1C=CC(=O)N1c1ccccc1,AC50,[1],inconclusive: 21.8 µM
same,AC50,[2],inconclusive: 16.3 µM
same,outcome,[3],inactive
same,AC50,[10],active: 69.7 µM
same,AC50,[12],active: 80.4 µM
same,AC50,[4],active: 87.1 µM
same,AC50,[11],active: 86.8 µM
same,AC50,[6],active: 85.3 µM
same,AC50,[8],active: 74900 nM
same,AC50,[7],active: 77.5 µM
COCCOCCC[Si](C)(O[Si](C)(C)C)O[Si](C)(C)C,AC50,[1],active: 33.2 µM
same,AC50,[2],active: 90.4 µM
same,outcome,[3],inactive
O=C(O)c1[nH]n(-c2ccc(S(=O)(=O)O)cc2)c(=O)c1N=Nc1ccc(S(=O)(=O)O)cc1,outcome,[1],inactive
same,outcome,[2],inactive
same,AC50,[3],inconclusive: 174 µM
same,AC50,[10],inconclusive: 43.5 µM and inconclusive: 46.2 µM and inconclusive: 1.36 µM
same,AC50,[12],active: 0.000189 µM
same,AC50,[4],inconclusive: 23 µM
same,outcome,[4],inactive
same,AC50,[11],active: 5.28e-05 µM
same,outcome,[11],inactive
same,outcome,[5],inactive
same,AC50,[6],active: 6.52e-05 µM
same,AC50,[8],inconclusive: 43.5 µM and inconclusive: 23 µM
same,AC50,[7],inconclusive: 43.5 µM and inconclusive: 85.8 µM and active: 0.0618 nM

# Copied from the entries so far (2 entries):
smiles,measurement,setting,value
CCCCC(CC)C(=O)OCCOCCOCCOC(=O)C(CC)CCCC (stereo not drawn),outcome,[10],inactive
same,AC50,[4],inconclusive: 46.1 µM
